These are yes or no findings as the source states them, for the method shown. Binding seen in cells or lysates may run through a third protein. A yes stands for co-enrichment or nearness to the bait. Other partners may have been found. Tags and fused reporters may be left off the sequences shown.
Experiments:
[1] = molecular target: T1, Ahp1 (S. cerevisiae 2-Cys peroxyredoxin) (S. cerevisiae) (UniProt P38013); test: copurification with 6His-Srx1, mass spectrometry
T1 sequence (looked up): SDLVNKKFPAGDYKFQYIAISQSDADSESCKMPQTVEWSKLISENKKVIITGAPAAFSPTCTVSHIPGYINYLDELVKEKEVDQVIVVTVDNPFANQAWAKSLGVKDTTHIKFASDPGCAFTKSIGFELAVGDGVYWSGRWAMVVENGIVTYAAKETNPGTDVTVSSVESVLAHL

[2] = molecular target: T2, Tsa2 (S. cerevisiae 2-Cys peroxyredoxin) (S. cerevisiae) (UniProt Q04120); test: copurification with 6His-Srx1, mass spectrometry
T2 sequence (looked up): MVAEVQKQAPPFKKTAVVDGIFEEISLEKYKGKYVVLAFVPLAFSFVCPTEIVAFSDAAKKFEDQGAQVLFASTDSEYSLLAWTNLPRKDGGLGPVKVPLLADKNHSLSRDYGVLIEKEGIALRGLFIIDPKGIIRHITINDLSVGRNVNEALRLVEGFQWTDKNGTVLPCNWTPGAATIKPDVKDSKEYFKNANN

[3] = molecular target: T1, Ahp1 (S. cerevisiae 2-Cys peroxyredoxin) (S. cerevisiae); test: copurification with 6His-Srx1 on Ni-NTA, SDS-PAGE, mass spectrometry
[4] = molecular target: T3, Tsa1 (S. cerevisiae 2-Cys peroxyredoxin) (S. cerevisiae) (UniProt P34760); test: as above
T3 sequence (looked up): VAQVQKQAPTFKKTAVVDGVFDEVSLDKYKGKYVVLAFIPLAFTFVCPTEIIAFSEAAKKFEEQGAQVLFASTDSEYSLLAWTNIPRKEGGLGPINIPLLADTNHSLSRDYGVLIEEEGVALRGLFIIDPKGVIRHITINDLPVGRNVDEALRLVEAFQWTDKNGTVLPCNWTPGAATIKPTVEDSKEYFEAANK

[5] = molecular target: T2, Tsa2 (S. cerevisiae 2-Cys peroxyredoxin) (S. cerevisiae); test: as above

Measured: binding

B1: 6His-Srx1 (S. cerevisiae sulfiredoxin Srx1 with six histidines at its N-terminal end) (enzyme)
chain: HHHHHHMSLQSNSVKPTEIPLSEIRRPLAPVLDPQKIDAMVATMKGIPTASKTCSLEQAEAAASAGELPPVDVLGVRVKGQTLYYAFGGCHRLQAYDRRARETQNAAFPVRCRVLPATPRQIRMYLGSSLDIE
binds: all assays above

Source: US20110189154A1
